# The list shows a part of the results.
# B1: Protein L(A-C2) (Finegoldia magna), Q51912 (protein)
# chain: ADEPIDLEKLEEKRDKENVGNLPKFDNEVKDGSENPMAKYPDFDDEASTRFETENNEFEEKKVVSDNFFDQSEHPFVENKEETPETPETDSEEEVTIKANLIFANGSTQTAEFKGTFEKATSEAYAYADTLKKDNGEYTVDVADKGYTLNIKFAGKEKTPEEPKEEVTIKANLIYADGKTQTAEFKGTFEEATAEAYRYADALKKDNGEYTVDVADKGYTLNIKFAGKEKTPEEPKEEVTIKANLIYADGKTQTAEFKGTFEEATAEAYRYADLLAKENGKYTVDVADKGYTLNIKFAGKEKTPEEPKEEVTIKANLIYADGKTQTAEFKGTFAEATAEAYRYADLLAKENGKYTADLEDGGYTINIRFAGKKVDEKPEEKEQVTIKENIYFEDGTVQTATFKGTFAEATAEAYRYADLLSKEHGKYTADLEDGGYTINIRFAGKEEPEETPEKPEVQDGYASYEEAEAAAKEALKNDDVNKSYTIRQGADGRYYYVLSPVEAEEEKPEAQNGYATYEEAEAAAKKALENDPINKSYSIRQGADGRYYYVLSPVEAE
# Legend:
# Assay in all cases: glycan array binding signal (z-score within array); higher = stronger binding
# Conditions in all cases: glycan notation: IUPAC condensed, linker removed
# [1] = biological target: Neu5Ac(a2-3)Gal(b1-3)[Fuc(a1-4)]GlcNAc
# Summary of the method: (§1)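 Glycan array binding is given as a within-array Z-score, which can be read as non-binding when negative. The arrays, 3228 of them, came from the Consortium for Functional Glycomics database and were retained only where the protein sequence was available. Z-scores were averaged across arrays of the same protein sequence at different concentrations or buffers and across linkers.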
# [2] = biological target: Neu5Ac(a2-3)Gal(b1-3)[Fuc(a1-4)]GlcNAc(b1-3)Gal(b1-3)[Fuc(a1-4)]GlcNAc
# Summary of the method: as §1
# [3] = biological target: Neu5Ac(a2-3)Gal(b1-3)[Fuc(a1-4)]GlcNAc(b1-3)Gal(b1-4)[Fuc(a1-3)]GlcNAc
# Summary of the method: as §1
# [4] = biological target: Neu5Ac(a2-3)Gal(b1-3)[GlcNAc(b1-6)]GalNAc
# Summary of the method: as §1
# [5] = biological target: Neu5Ac(a2-3)Gal(b1-3)[Neu5Ac(a2-6)]GalNAc
# Summary of the method: as §1
# [6] = biological target: Neu5Ac(a2-3)Gal(b1-3)[Neu5Ac(a2-6)]GlcNAc(b1-3)[Fuc(a1-3)[Gal(b1-4)]GlcNAc(b1-6)]Gal(b1-4)Glc
# Summary of the method: as §1
# [7] = biological target: Neu5Ac(a2-3)Gal(b1-3)]Neu5Ac(a2-3)Gal(b1-4)]GlcNAc
# Summary of the method: as §1
# Neu5Ac(a2-3)Gal(b1-4)Glc = biological target: Neu5Ac(a2-3)Gal(b1-4)Glc
# Summary of the method: as §1
# [8] = biological target: Neu5Ac(a2-3)Gal(b1-4)GlcNAc
# Summary of the method: as §1
# [9] = biological target: Neu5Ac(a2-3)Gal(b1-4)GlcNAc(b1-2)Man
# Summary of the method: as §1
# [10] = biological target: Neu5Ac(a2-3)Gal(b1-4)GlcNAc(b1-2)Man(a1-3)[GlcNAc(b1-4)][Neu5Ac(a2-3)Gal(b1-4)GlcNAc(b1-2)Man(a1-6)]Man(b1-4)GlcNAc(b1-4)GlcNAc
# Summary of the method: as §1
# [11] = biological target: Neu5Ac(a2-3)Gal(b1-4)GlcNAc(b1-2)Man(a1-3)[Neu5Ac(a2-3)Gal(b1-4)GlcNAc(b1-2)Man(a1-6)]Man(b1-4)GlcNAc(b1-4)GlcNAc
# Summary of the method: as §1
# [12] = biological target: Neu5Ac(a2-3)Gal(b1-4)GlcNAc(b1-2)Man(a1-3)[Neu5Ac(a2-3)Gal(b1-4)GlcNAc(b1-2)Man(a1-6)]Man(b1-4)GlcNAc(b1-4)[Fuc(a1-6)]GlcNAc
# Summary of the method: as §1
# [13] = biological target: Neu5Ac(a2-3)Gal(b1-4)GlcNAc(b1-2)Man(a1-3)[Neu5Ac(a2-6)Gal(b1-4)GlcNAc(b1-2)Man(a1-6)]Man(b1-4)GlcNAc(b1-4)GlcNAc
# Summary of the method: as §1
# [14] = biological target: Neu5Ac(a2-3)Gal(b1-4)GlcNAc(b1-2)[Neu5Ac(a2-3)Gal(b1-4)GlcNAc(b1-4)]Man(a1-3)[GlcNAc(b1-4)][Neu5Ac(a2-3)Gal(b1-4)GlcNAc(b1-2)[Neu5Ac(a2-3)Gal(b1-4)GlcNAc(b1-6)]Man(a1-6)]Man(b1-4)GlcNAc(b1-4)GlcNAc
# Summary of the method: as §1
# [15] = biological target: Neu5Ac(a2-3)Gal(b1-4)GlcNAc(b1-2)[Neu5Ac(a2-3)Gal(b1-4)GlcNAc(b1-4)]Man(a1-3)[GlcNAc(b1-4)][Neu5Ac(a2-3)Gal(b1-4)GlcNAc(b1-4)Man(a1-6)]Man(b1-4)GlcNAc(b1-4)GlcNAc
# Summary of the method: as §1
# [16] = biological target: Neu5Ac(a2-3)Gal(b1-4)GlcNAc(b1-2)[Neu5Ac(a2-3)Gal(b1-4)GlcNAc(b1-6)]Man(a1-6)[Neu5Ac(a2-3)Gal(b1-4)GlcNAc(b1-2)Man(a1-3)]Man(b1-4)GlcNAc(b1-4)GlcNAc
# Summary of the method: as §1
# [17] = biological target: Neu5Ac(a2-3)Gal(b1-4)GlcNAc(b1-2)[Neu5Ac(a2-3)Gal(b1-4)GlcNAc(b1-6)]Man(a1-6)[Neu5Ac(a2-3)Gal(b1-4)GlcNAc(b1-2)Man(a1-3)][GlcNAc(b1-4)]Man(b1-4)GlcNAc(b1-4)GlcNAc
# Summary of the method: as §1
# [18] = biological target: Neu5Ac(a2-3)Gal(b1-4)GlcNAc(b1-3)Gal
# Summary of the method: as §1
# [19] = biological target: Neu5Ac(a2-3)Gal(b1-4)GlcNAc(b1-3)Gal(b1-3)GlcNAc
# Summary of the method: as §1
# [20] = biological target: Neu5Ac(a2-3)Gal(b1-4)GlcNAc(b1-3)Gal(b1-4)GlcNAc
# Summary of the method: as §1
# [21] = biological target: Neu5Ac(a2-3)Gal(b1-4)GlcNAc(b1-3)Gal(b1-4)GlcNAc(b1-2)Man(a1-3)[Neu5Ac(a2-3)Gal(b1-4)GlcNAc(b1-3)Gal(b1-4)GlcNAc(b1-2)Man(a1-6)]Man(b1-4)GlcNAc(b1-4)GlcNAc
# Summary of the method: as §1
# [22] = biological target: Neu5Ac(a2-3)Gal(b1-4)GlcNAc(b1-3)Gal(b1-4)GlcNAc(b1-3)Gal(b1-4)GlcNAc
# Summary of the method: as §1
# [23] = biological target: Neu5Ac(a2-3)Gal(b1-4)GlcNAc(b1-3)Gal(b1-4)GlcNAc(b1-3)Gal(b1-4)GlcNAc(b1-2)Man(a1-3)[Neu5Ac(a2-3)Gal(b1-4)GlcNAc(b1-3)Gal(b1-4)GlcNAc(b1-3)Gal(b1-4)GlcNAc(b1-2)Man(a1-6)]GalNAc
# Summary of the method: as §1
# [24] = biological target: Neu5Ac(a2-3)Gal(b1-4)GlcNAc(b1-3)Gal(b1-4)GlcNAc(b1-3)GalNAc
# Summary of the method: as §1
# [25] = biological target: Neu5Ac(a2-3)Gal(b1-4)GlcNAc(b1-3)Gal(b1-4)GlcNAc(b1-3)[Neu5Ac(a2-3)Gal(b1-4)GlcNAc(b1-3)Gal(b1-4)GlcNAc(b1-6)]GalNAc
# Summary of the method: as §1
# [26] = biological target: Neu5Ac(a2-3)Gal(b1-4)GlcNAc(b1-3)Gal(b1-4)GlcNAc(b1-6)[Gal(b1-3)]GalNAc
# Summary of the method: as §1
# [27] = biological target: Neu5Ac(a2-3)Gal(b1-4)GlcNAc(b1-3)Gal(b1-4)[Fuc(a1-3)]GlcNAc
# Summary of the method: as §1
# [28] = biological target: Neu5Ac(a2-3)Gal(b1-4)GlcNAc(b1-3)GalNAc
# Summary of the method: as §1
# [29] = biological target: Neu5Ac(a2-3)Gal(b1-4)GlcNAc(b1-3)[Neu5Ac(a2-3)Gal(b1-4)GlcNAc(b1-6)]GalNAc
# Summary of the method: as §1
binder,measurement,setting,value
B1,glycan array binding signal (z-score),[1],-0.939
same,glycan array binding signal (z-score),[2],0.413
same,glycan array binding signal (z-score),[3],0.16
same,glycan array binding signal (z-score),[4],-0.278
same,glycan array binding signal (z-score),[5],-0.759
same,glycan array binding signal (z-score),[6],-0.758
same,glycan array binding signal (z-score),[7],-0.754
same,glycan array binding signal (z-score),Neu5Ac(a2-3)Gal(b1-4)Glc,0.38
same,glycan array binding signal (z-score),[8],-0.281
same,glycan array binding signal (z-score),[9],1.2
same,glycan array binding signal (z-score),[10],-0.228
same,glycan array binding signal (z-score),[11],-0.474
same,glycan array binding signal (z-score),[12],2.19
same,glycan array binding signal (z-score),[13],-0.634
same,glycan array binding signal (z-score),[14],-0.678
same,glycan array binding signal (z-score),[15],-0.74
same,glycan array binding signal (z-score),[16],1.63
same,glycan array binding signal (z-score),[17],-0.899
same,glycan array binding signal (z-score),[18],-0.678
same,glycan array binding signal (z-score),[19],-1.25
same,glycan array binding signal (z-score),[20],-1.1
same,glycan array binding signal (z-score),[21],2.07
same,glycan array binding signal (z-score),[22],0.675
same,glycan array binding signal (z-score),[23],3.85
same,glycan array binding signal (z-score),[24],-0.551
same,glycan array binding signal (z-score),[25],0.955
same,glycan array binding signal (z-score),[26],2.4
same,glycan array binding signal (z-score),[27],-0.443
same,glycan array binding signal (z-score),[28],-0.832
same,glycan array binding signal (z-score),[29],-0.953

# Looked up one by one from the list above (2):
binder,measurement,setting,value
B1,glycan array binding signal (z-score),Neu5Ac(a2-3)Gal(b1-4)Glc,0.38
same,glycan array binding signal (z-score),[25],0.955
